Results reported in PMC8106185.

Legend:
[1] = test system: SkCSP2 (Symbiodinium kawagutii); assay: EMSA; conditions: 0.5-3 ug protein, EMSA: 20 uL of '2x binding buffer' (20 mM Tris-Cl pH 7.0, 20 mM MgCl2, 50 mM KCl, 10% glycerol, 1 mM DTT), 30 min, room temperature, 1 ng probe, recombinant protein, protein details: GST removed by thrombin, label: 5'-32P
[2] = test system: SkCSP1 (Symbiodinium kawagutii); assay: EMSA; conditions: 0.5-3 ug protein, EMSA: 20 uL of '2x binding buffer' (20 mM Tris-Cl pH 7.0, 20 mM MgCl2, 50 mM KCl, 10% glycerol, 1 mM DTT), 30 min, room temperature, 1 ng probe, recombinant protein, protein details: GST removed by thrombin, label: 5'-32P
[3] = test system: LpCSP1 (Lingulodinium polyedra); assay: EMSA; conditions: 0.5-3 ug protein, EMSA: 20 uL of '2x binding buffer' (20 mM Tris-Cl pH 7.0, 20 mM MgCl2, 50 mM KCl, 10% glycerol, 1 mM DTT), 30 min, room temperature, 1 ng probe, recombinant protein, protein details: GST removed by thrombin, label: 5'-32P
[4] = test system: SkCSP3 (Symbiodinium kawagutii); assay: EMSA; conditions: 0.5-3 ug protein, EMSA: 20 uL of '2x binding buffer' (20 mM Tris-Cl pH 7.0, 20 mM MgCl2, 50 mM KCl, 10% glycerol, 1 mM DTT), 30 min, room temperature, 1 ng probe, recombinant protein, protein details: GST removed by thrombin, label: 5'-32P
[5] = test system: SkCSP1 (Symbiodinium kawagutii); assay: competition with a labelled probe; conditions: cold dsDNA 1-80x vs ssDNA probe, band mostly stable, cold oligo sequence uncertain; EMSA: 20 uL of '2x binding buffer' (20 mM Tris-Cl pH 7.0, 20 mM MgCl2, 50 mM KCl, 10% glycerol, 1 mM DTT), 30 min, room temperature, 1 ng probe; recombinant protein; protein details: GST removed by thrombin; label: 5'-32P

Sequence | binding result [1] | binding result [2] | binding result [3] | binding result [4] | binding result [5] | binding result ([1]; single-stranded DNA) | binding result ([2]; single-stranded DNA) | binding result ([3]; single-stranded DNA) | binding result ([4]; single-stranded DNA)
GGCGCCCTCCCTCCGCCCTCCCTCA (double strand) [25 bp C-rich dsDNA] | binds | binds | binds | binds | binds more weakly |  |  |  | 
TCCGCCCTCCCTCCCCCCGCCCTCCCTCCCCA [32 nt C-rich ssDNA] |  |  |  |  |  | binds | binds | binds | binds

Construct, isoform or probe ends are uncertain for at least one entry. For part of these data: Weaker means in comparison with the reference protein, sequence or condition of that experiment. For part of these data: At least one verdict rests on a figure or table, not on a statement of the authors.
